Data as given in PubChem BioAssay AID1259254 (NCATS, 2017).

Screen: 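Gene knock-downs that lead to re-replication, shown by excess G2 DNA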 (primary screen)
System: human HCT116 colorectal cancer cells
Knock-down reagent: single siRNA against human genes
Timing: 3 days
Measurement: 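Nuclei stained with Hoechst and imaged; cell-cycle phase assigned by DNA content; G2 share scaled per plate, non-targeting siRNA 0%, GMNN siRNA 100%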
Scale: G2 robust z-score: higher = more G2 cells, more excess DNA replication
Hit rule: 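An siRNA counts as active if its G2 robust z-score lies at least 5 MADs above the screen median; here such calls match roughly 38% of GMNN control or more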
In all, the deposit lists about 59,000 reagents; this is a random part of them. About 1,550 of all reagents (2.6%) count as active. 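G2 share is only a proxy for re-replication; each gene was hit by three separate siRNAs, and active genes were retested.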 The numbers tell different reagents against one gene apart. Further read-outs or replicates are left out here. The record does not give: the amount of reagent.

| target gene | reagent no. | G2 robust z-score | call |
| --- | --- | --- | --- |
| NDRG3 | 1 | 1.56 | inactive |
| NDRG3 | 2 | -0.121 | inactive |
| NDRG3 | 3 | 1.42 | inactive |
| SERTAD4-AS1 | 1 | -0.774 | inactive |
| SERTAD4-AS1 | 2 | -0.565 | inactive |
| SERTAD4-AS1 | 3 | -0.268 | inactive |
| GLTP | 1 | -0.231 | inactive |
| GLTP | 2 | 1.35 | inactive |
| GLTP | 3 | 0.527 | inactive |
| KRTAP13-3 | 1 | 0.428 | inactive |
| KRTAP13-3 | 2 | -0.378 | inactive |
| KRTAP13-3 | 3 | -0.834 | inactive |
| ARVCF | 1 | -0.203 | inactive |
| ARVCF | 2 | 0.378 | inactive |
| ARVCF | 3 | -1.43 | inactive |
| RPL12P2 | 1 | 0.679 | inactive |
| RPL12P2 | 2 | 1.14 | inactive |
| RPL12P2 | 3 | 1.11 | inactive |
| CAND1 | 1 | -0.514 | inactive |
| CAND1 | 2 | 1.89 | inactive |
| CAND1 | 3 | -0.534 | inactive |
| HLA-DOB | 1 | 4.1 | inactive |
| HLA-DOB | 2 | -0.717 | inactive |
| HLA-DOB | 3 | -0.591 | inactive |
| LRTM2 | 1 | 1.43 | inactive |
| LRTM2 | 2 | -0.139 | inactive |
| LRTM2 | 3 | -0.306 | inactive |
| S100Z | 1 | -0.0269 | inactive |
| S100Z | 2 | 0.7 | inactive |
| S100Z | 3 | 0.275 | inactive |
| WDR5B | 1 | 3.78 | inactive |
| WDR5B | 2 | 0.104 | inactive |
| WDR5B | 3 | 0.22 | inactive |
| IRX3 | 1 | -1.01 | inactive |
| IRX3 | 2 | -0.812 | inactive |
| IRX3 | 3 | -0.321 | inactive |
| FGF7P6 | 1 | 0.281 | inactive |
| FGF7P6 | 2 | 0.0919 | inactive |
| FGF7P6 | 3 | 0.641 | inactive |
| POU5F1 | 1 | 0.446 | inactive |
| POU5F1 | 2 | 0.412 | inactive |
| POU5F1 | 3 | 1.17 | inactive |
| FSTL3 | 1 | 0.259 | inactive |
| FSTL3 | 2 | 0.833 | inactive |
| FSTL3 | 3 | 5.25 | active |
| ACVR1 | 1 | -0.447 | inactive |
| ACVR1 | 2 | -1.43 | inactive |
| ACVR1 | 3 | -0.918 | inactive |
